Consider one molecule from patent US20140322241A1.

Protein sequences, listed by entry. Tags and fused reporters are not part of them. Residues count along the entry.
UniProt P04114, residues 28-1569: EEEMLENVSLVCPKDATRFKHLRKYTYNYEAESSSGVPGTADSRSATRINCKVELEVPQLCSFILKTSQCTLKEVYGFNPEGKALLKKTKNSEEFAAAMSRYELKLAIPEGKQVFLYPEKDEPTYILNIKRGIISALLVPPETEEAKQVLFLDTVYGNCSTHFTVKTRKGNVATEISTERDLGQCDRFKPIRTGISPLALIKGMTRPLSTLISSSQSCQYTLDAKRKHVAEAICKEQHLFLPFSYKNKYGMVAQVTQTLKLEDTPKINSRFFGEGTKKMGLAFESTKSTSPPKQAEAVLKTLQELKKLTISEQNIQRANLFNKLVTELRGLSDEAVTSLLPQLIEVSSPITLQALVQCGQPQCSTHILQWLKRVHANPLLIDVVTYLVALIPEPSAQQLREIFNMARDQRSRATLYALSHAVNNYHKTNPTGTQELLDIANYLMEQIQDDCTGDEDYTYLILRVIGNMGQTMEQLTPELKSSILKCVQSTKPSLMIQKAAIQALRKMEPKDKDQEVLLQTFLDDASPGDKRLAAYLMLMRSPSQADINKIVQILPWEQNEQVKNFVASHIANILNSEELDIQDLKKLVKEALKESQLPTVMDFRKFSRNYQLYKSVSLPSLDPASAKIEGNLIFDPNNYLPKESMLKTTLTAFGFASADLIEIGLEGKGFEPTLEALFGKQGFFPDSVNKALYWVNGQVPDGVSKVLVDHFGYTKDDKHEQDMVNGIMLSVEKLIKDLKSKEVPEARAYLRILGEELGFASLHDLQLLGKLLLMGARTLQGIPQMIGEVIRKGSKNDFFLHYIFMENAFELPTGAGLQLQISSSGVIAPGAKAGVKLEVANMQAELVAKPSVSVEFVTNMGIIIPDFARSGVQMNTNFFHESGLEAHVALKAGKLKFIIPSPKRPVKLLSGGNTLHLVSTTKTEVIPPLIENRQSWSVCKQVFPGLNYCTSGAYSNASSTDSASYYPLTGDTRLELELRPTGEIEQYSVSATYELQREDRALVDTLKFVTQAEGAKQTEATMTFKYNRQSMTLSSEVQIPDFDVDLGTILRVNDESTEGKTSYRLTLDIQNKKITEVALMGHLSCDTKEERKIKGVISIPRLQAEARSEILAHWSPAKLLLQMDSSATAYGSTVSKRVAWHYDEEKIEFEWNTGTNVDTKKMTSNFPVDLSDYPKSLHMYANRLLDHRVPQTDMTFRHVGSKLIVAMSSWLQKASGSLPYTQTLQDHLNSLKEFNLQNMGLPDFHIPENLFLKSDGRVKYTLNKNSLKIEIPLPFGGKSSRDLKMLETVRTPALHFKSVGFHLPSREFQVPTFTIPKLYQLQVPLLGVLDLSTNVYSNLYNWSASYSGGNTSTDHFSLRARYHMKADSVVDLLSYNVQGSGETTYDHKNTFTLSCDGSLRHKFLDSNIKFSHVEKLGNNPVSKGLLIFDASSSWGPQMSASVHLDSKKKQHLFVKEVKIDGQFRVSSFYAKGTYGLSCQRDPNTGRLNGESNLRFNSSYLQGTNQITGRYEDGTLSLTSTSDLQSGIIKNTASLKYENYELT

No constants are given. Whether binding was seen depends on the method and setting. Binding seen in cells or lysates may run through a third protein. Some entries that bind do so weakly or less than the wild type.

This assay addresses ApoB34 (human apolipoprotein B truncated form) (human) (UniProt P04114). Kind of assay: co-immunoprecipitation with anti-apoB antibody from lysate of 35S-labelled HEK293 cells co-transfected with ApoB34 and Huh7MTP; SDS-PAGE and phosphorimager.

B1: Huh7MTP (human microsomal triglyceride transfer protein cloned from Huh7 hepatoma cell RNA) (protein, UniProt P55157 19-894, looked up)
chain: VKGHTTGLSLNNDRLYKLTYSTEVLLDRGKGKLQDSVGYRISSNVDVALLWRNPDGDDDQLIQITMKDVNVENVNQQRGEKSIFKGKSPSKIMGKENLEALQRPTLLHLIHGKVKEFYSYQNEAVAIENIKRGLASLFQTQLSSGTTNEVDISGNCKVTYQAHQDKVIKIKALDSCKIARSGFTTPNQVLGVSSKATSVTTYKIEDSFVIAVLAEETHNFGLNFLQTIKGKIVSKQKLELKTTEAGPRLMSGKQAAAIIKAVDSKYTAIPIVGQVFQSHCKGCPSLSELWRSTRKYLQPDNLSKAEAVRNFLAFIQHLRTAKKEEILQILKMENKEVLPQLVDAVTSAQTSDSLEAILDFLDFKSDSSIILQERFLYACGFASHPNEELLRALISKFKGSIGSSDIRETVMIITGTLVRKLCQNEGCKLKAVVEAKKLILGGLEKAEKKEDTRMYLLALKNALLPEGIPSLLKYAEAGEGPISHLATTALQRYDLPFITDEVKKTLNRIYHQNRKVHEKTVRTAAAAIILNNNPSYMDVKNILLSIGELPQEMNKYMLAIVQDILRFEMPASKIVRRVLKEMVAHNYDRFSRSGSSSAYTGYIERSPRSASTYSLDILYSGSGILRRSNLNIFQYIGKAGLHGSQVVIEAQGLEALIAATPDEGEENLDSYAGMSAILFDVQLRPVTFFNGYSDLMSKMLSASGDPISVVKGLILLIDHSQELQLQSGLKANIEVQGGLAIDISGAMEFSLWYRESKTRVKNRVTVVITTDITVDSSFVKAGLETSTETEAGLEFISTVQFSQYPFLVCMQMDKDEAPFRQFEKKYERLSTGRGYVSQKRKESVLAGCEFPLHQENSEMCKVVFAPQPDSTSSGWF
In the case of B1, the binding result was “binds”.
